From patent publication US6992103B2, “Benzamide derivatives, processes for their preparation, and their pharmaceutical use” (SmithKline Beecham P.L.C., priority 2001, dated 2006)
Some of these results come from one statement about several compounds together.

Sequences of proteins named here, by UniProt entry; tags and fusion partners are left off. Residues count along the entry.
UniProt P56817, 46-501: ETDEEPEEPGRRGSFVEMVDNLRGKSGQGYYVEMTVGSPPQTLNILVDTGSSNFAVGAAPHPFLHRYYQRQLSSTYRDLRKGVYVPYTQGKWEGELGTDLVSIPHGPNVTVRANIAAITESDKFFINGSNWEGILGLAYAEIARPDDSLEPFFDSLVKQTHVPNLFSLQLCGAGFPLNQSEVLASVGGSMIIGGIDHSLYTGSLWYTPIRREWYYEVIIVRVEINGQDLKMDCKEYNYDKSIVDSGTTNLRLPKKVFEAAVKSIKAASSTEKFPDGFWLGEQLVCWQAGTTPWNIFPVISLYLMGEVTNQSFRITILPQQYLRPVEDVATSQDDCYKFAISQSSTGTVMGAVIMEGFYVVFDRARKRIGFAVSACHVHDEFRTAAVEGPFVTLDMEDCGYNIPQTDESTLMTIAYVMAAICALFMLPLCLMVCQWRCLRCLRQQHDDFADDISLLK
UniProt P07339, 65-412, species assumed: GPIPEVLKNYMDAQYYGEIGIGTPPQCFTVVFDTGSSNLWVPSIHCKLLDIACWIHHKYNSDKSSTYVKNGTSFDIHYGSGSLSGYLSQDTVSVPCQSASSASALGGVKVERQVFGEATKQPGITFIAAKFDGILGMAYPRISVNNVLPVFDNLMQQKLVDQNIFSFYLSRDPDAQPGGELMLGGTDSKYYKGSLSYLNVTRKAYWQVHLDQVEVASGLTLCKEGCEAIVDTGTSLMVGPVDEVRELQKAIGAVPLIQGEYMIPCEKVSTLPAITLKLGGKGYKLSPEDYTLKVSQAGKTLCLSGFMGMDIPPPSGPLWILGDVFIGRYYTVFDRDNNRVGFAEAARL

Assays:
Asp-2 = Asp-2 (Homo sapiens, UniProt P56817); assay: Asp-2 Inhibitory Assay (FAM-[SEVNLDAEFK]-TAMRA substrate cleavage, fluorescence); type: biochemical; details: Assay (I); range given for a group of Examples; read-out: range of inhibition (Asp-2)
Method: (I) Asp-2 Inhibitory Assay
(§1) For each compound being assayed, in a 384 well plate, is added:
(§2) a) 1 μl of a DMSO solution of the test compound (IC50 curve uses ten 1 in 2 serial dilutions from 500 μM).
b) 10 μl of substrate (FAM-[SEVNLDAEFK]-TAMRA) solution in buffer. This is prepared by diluting 2 ml of a 2 mM DMSO solution of the substrate into 400 ml of buffer (100 mM Sodium acetate pH=4.5, 1 l Milli-Q water, 0.06% Triton X-100 (0.5 ml/l), pH adjusted to 4.5 using glacial acetic acid). Aminomethyl fluorescein (FAM) and tetramethyl rhodamine (TAMRA) are fluorescent molecules which co-operate to emit fluorescence at 535 nm upon cleavage of the SEVNLDAEFK peptide. c) 10 μl enzyme solution. This is prepared by diluting 16 ml of a 500 nM enzyme solution into 384 ml of buffer (prepared as above).
(§3) Blank wells (enzyme solution replaced by buffer) are included as controls on each plate. Wells are incubated for 1 h at room temperature and fluorescence read using a Tecan Ultra Fluorimeter/Spectrophotometer (485 nm excitation, 535 nm emission).

Cathepsin D = Cathepsin D (Homo sapiens, UniProt P07339); assay: Cathepsin D Inhibitory Assay (FAM-SEVNLDAEFK-TAMRA substrate cleavage, fluorescence); type: biochemical; details: Assay (III); range given for a group of Examples; read-out: range of inhibition (CatD)
Method: (II) Cathepsin D Inhibitory Assay
as §1, §2
b) 10 μl of substrate (FAM-SEVNLDAEFK-TAMRA) solution in buffer. This is prepared by diluting 2 ml of a 2 mM DMSO solution of the substrate into 400 ml of buffer (100 mM Sodium acetate pH=4.5, 1 l Milli-Q water, 0.06% Triton X-100 (0.5 ml/l), pH adjusted to 4.5 using glacial acetic acid). c) 10 μl enzyme solution. This is prepared by diluting 1.6 ml of a 200 unit/ml (in 10 mM HCl) enzyme solution into 398.4 ml of buffer (prepared as above).
as §3

Row | Compound | IC50 (Asp-2) | IC50 (Cathepsin D)
1 | C[C@H](C[C@H](O)[C@H](Cc1ccccc1)NC(=O)c1cc(O)cc(N2CCCC2=O)c1)C(=O)NCCC(C)(C)C [Example E2, N-[(1S,2S,4R)-1-Benzyl-4-(3,3-dimethylbutylcarbamoyl)-2-hydroxypentyl]-3-hydroxy-5-(2-oxopyrrolidin-1-yl)-benzamide] | 3 to 200 nM | 100 to 3000 nM
2 | C[C@H](C[C@H](O)[C@H](Cc1ccccc1)NC(=O)c1cc(N2CCCC2=O)cc(N2CCCC2=O)c1)C(=O)NCCC(C)(C)C [Example E5, N-[(1S,2S,4R)-1-Benzyl-4-(3,3-dimethyl-butylcarbamoyl)-2-hydroxypenty]-3,5-bis-(2-oxo-pyrrolidin-1-yl)benzamide] | 3 to 200 nM | 100 to 3000 nM
3 | C[C@H](C[C@H](O)[C@H](Cc1ccccc1)NC(=O)c1cc(-c2ccccc2)cc(N2CCCC2=O)c1)C(=O)NCCC(C)(C)C [Example E6, N-[(1S,2S,4R)-1-Benzyl-4-(3,3-dimethylbutylcarbamoyl)-2-hydroxypentyl]-3-(2-oxopyrrolidin-1-yl)-5-phenylbenzamide] | 3 to 200 nM | 100 to 3000 nM
4 | CC(C)CC[C@H](C[C@H](O)[C@H](Cc1ccccc1)NC(=O)c1cc(N2CCCC2=O)cc(N2CCCC2=O)c1)C(=O)NC1CC2CCC1C2 (stereo partly drawn) [Example E7, N-[(1S,2S,4R)-1-Benzyl-4-(bicyclo[2.2.1]hept-2-ylcarbamoyl)-2-hydroxy-7-methyloctyl]-3,5-bis-(2-oxo-pyrrolidin-1-yl)benzamide] | 3 to 200 nM | 100 to 3000 nM
5 | C[C@H](C[C@H](O)[C@H](Cc1ccccc1)NC(=O)c1cc(N2CCCC2=O)cc(N2CCCC2=O)c1)C(=O)NC1CC2CCC1C2 (stereo partly drawn) [Example E8, N-[(1S,2S,4R)-1-Benzyl-4-(bicyclo[2.2.1]hept-2-ylcarbamoyl)-2-hydroxypentyl]-3,5-bis-(2-oxopyrrolidin-1-yl)benzamide] | 3 to 200 nM | 100 to 3000 nM
6 | C#CC[C@H](C[C@H](O)[C@H](Cc1ccccc1)NC(=O)c1cc(N2CCCC2=O)cc(N2CCCC2=O)c1)C(=O)NC1CC2CCC1C2 (stereo partly drawn) [Example E9, N-[(1S,2S,4R)-1-Benzyl-4-(bicyclo[2.2.1]hept-2-ylcarbamoyl)-2-hydroxyhept-6-ynyl]-3,5-bis-(2-oxopyrrolidin-1-yl)benzamide] | 3 to 200 nM | 100 to 3000 nM
7 | CC(=O)Nc1cc(C(=O)N[C@@H](Cc2ccccc2)[C@@H](O)C[C@@H](C)C(=O)NC2CC3CCC2C3)cc(N2CCCC2=O)c1 (stereo partly drawn) [Example E10, 3-Acetylamino-N-[(1S,2S,4R)-1-benzyl-4-(bicyclo[2.2.1]hept-2-ylcarbamoyl)-2-hydroxypentyl]-5-(2-oxopyrrolidin-1-yl)benzamide] | 3 to 200 nM | 100 to 3000 nM
8 | C[C@H](C[C@H](O)[C@H](Cc1ccccc1)NC(=O)c1cc(Oc2ccccc2)cc(N2CCCC2=O)c1)C(=O)NCCC(C)(C)C [Example E11, N-[(1S,2S,4R)-1-Benzyl-4-(3,3-dimethylbutylcarbamoyl)-2-hydroxypentyl]-3-(2-oxopyrrolidin-1-yl)-5-phenoxybenzamide] | 3 to 200 nM | 100 to 3000 nM
9 | COCCCOc1cc(C(=O)N[C@@H](Cc2ccccc2)[C@@H](O)C[C@@H](C)C(=O)NC2CC3CCC2C3)cc(N2CCCC2=O)c1 (stereo partly drawn) [Example E12] | 3 to 200 nM | 100 to 3000 nM
10 | C[C@H](C[C@H](O)[C@H](Cc1ccccc1)NC(=O)c1cc(OCCO)cc(N2CCCC2=O)c1)C(=O)NC1CC2CCC1C2 (stereo partly drawn) [Example E13] | 3 to 200 nM | 100 to 3000 nM
11 | CC(C)Oc1cc(C(=O)N[C@@H](Cc2ccccc2)[C@@H](O)C[C@@H](C)C(=O)NC2CC3CCC2C3)cc(N2CCCC2=O)c1 (stereo partly drawn) [Example E14, N-[(1S,2S,4R)-1-Benzyl-4-(bicyclo[2.2.1]hept-2-ylcarbamoyl)-2-hydroxypentyl]-3-isopropoxy-5-(2-oxopyrrolidin-1-yl)benzamide] | 3 to 200 nM | 100 to 3000 nM
12 | COc1cc(C(=O)N[C@@H](Cc2ccccc2)[C@@H](O)C[C@@H](C)C(=O)NC2CC3CCC2C3)cc(N2CCCCC2=O)c1 (stereo partly drawn) [Example E15, N-[(1S,2S,4R)-1-Benzyl-4-(bicyclo[2.2.1]hept-2-ylcarbamoyl)-2-hydroxy-pentyl]-3-methoxy-5-(2-oxopiperidin-1-yl)benzamide] | 3 to 200 nM | 100 to 3000 nM
13 | COc1cc(C(=O)N[C@@H](Cc2ccccc2)[C@@H](O)C[C@@H](C)C(=O)NC2CC3CCC2C3)cc(N2CCCCCC2=O)c1 (stereo partly drawn) [Example E16, N-[(1S,2S,4R)-1-Benzyl-4-(bicyclo[2.2.1]hept-2-ylcarbamoyl)-2-hydroxypentyl]-3-methoxy-5-(2-oxoazepan-1-yl)benzamide] | 3 to 200 nM | 100 to 3000 nM
14 | C[C@H](C[C@H](O)[C@H](Cc1ccccc1)NC(=O)c1cccc(N2CCOC2=O)c1)C(=O)NC1CC2CCC1C2 (stereo partly drawn) [Example E17, N-[(1S,2S,4R)-1-Benzyl-4-(bicyclo[2.2.1]hept-2-ylcarbamoyl)-2-hydroxypentyl]-3-(2-oxooxazolidin-3-yl)benzamide] | 3 to 200 nM | 100 to 3000 nM
15 | C[C@H](C[C@H](O)[C@H](Cc1ccccc1)NC(=O)c1cccc(N2C(=O)OC[C@H]2Cc2ccccc2)c1)C(=O)NC1CC2CCC1C2 (stereo partly drawn) [Example E18, N-[(1S,2S,4R)-1-Benzyl-4-(bicyclo[2.2.1]hept-2-ylcarbamoyl)-2-hydroxypentyl]-3-((R)-4-benzyl-2-oxooxazolidin-3-yl)benzamide] | 3 to 200 nM | 100 to 3000 nM
16 | CC(C)[C@H]1COC(=O)N1c1cccc(C(=O)N[C@@H](Cc2ccccc2)[C@@H](O)C[C@@H](C)C(=O)NC2CC3CCC2C3)c1 (stereo partly drawn) [Example E19, N-[(1S,2S,4R)-1-Benzyl-4-(bicyclo[2.2.1]hept-2-ylcarbamoyl)-2-hydroxy-pentyl]-3-((S)-4-isopropyl-2-oxo-oxazolidin-3-yl)-benzamide] | 3 to 200 nM | 100 to 3000 nM
17 | C[C@H](C[C@H](O)[C@H](Cc1ccccc1)NC(=O)c1cc(C(F)(F)F)cc(N2CCCC2=O)c1F)C(=O)NC1CC2CCC1C2 (stereo partly drawn) [Example E20, N-[(1S,2S,4R)-1-Benzyl-4-(bicyclo[2.2.1]hept-2-ylcarbamoyl)-2-hydroxypentyl]-2-fluoro-3-(2-oxopyrrolidin-1-yl)-5-trifluoromethyl-benzamide] | 3 to 200 nM | 100 to 3000 nM
18 | C[C@H](C[C@H](O)[C@H](Cc1ccccc1)NC(=O)c1cccc(N2CCCC2=O)c1F)C(=O)NC1CC2CCC1C2 (stereo partly drawn) [Example E21, N-[(1S,2S,4R)-1-Benzyl-4-(bicyclo[2.2.1]hept-2-ylcarbamoyl)-2-hydroxypentyl]-2-fluoro-3-(2-oxopyrrolidin-1-yl)-benzamide] | 3 to 200 nM | 100 to 3000 nM
19 | C[C@H](C[C@H](O)[C@H](Cc1ccccc1)NC(=O)c1cc(N2CCCC2=O)cc(N2CCCC2=O)c1F)C(=O)NC1CC2CCC1C2 (stereo partly drawn) [Example E22, N-[(1S,2S,4R)-1-Benzyl-4-(bicyclo[2.2.1]hept-2-ylcarbamoyl)-2-hydroxypentyl]-2-fluoro-3,5-bis-(2-oxopyrrolidin-1-yl)benzamide] | 2 to 900 nM | 160 to 3000 nM
20 | C[C@H](C[C@H](O)[C@H](Cc1ccccc1)NC(=O)c1cc(OCC2CC2)cc(N2CCCC2=O)c1)C(=O)NC1CC2CCC1C2 (stereo partly drawn) [Example E23, N-[(1S,2S,4R)-1-Benzyl-4-(bicyclo[2.2.1]hept-2-ylcarbamoyl)-2-hydroxypentyl]-3-cyclopropylmethoxy-5-(2-oxopyrrolidin-1-yl)benzamide] | 2 to 900 nM | 160 to 3000 nM
21 | C[C@H](C[C@H](O)[C@H](Cc1ccccc1)NC(=O)c1cc(OC2CCC2)cc(N2CCCC2=O)c1)C(=O)NC1CC2CCC1C2 (stereo partly drawn) [Example E24, N-[(1S,2S,4R)-1-Benzyl-4-(bicyclo[2.2.1]hept-2-ylcarbamoyl)-2-hydroxypentyl]-3-cyclobutoxy-5-(2-oxopyrrolidin-1-yl)benzamide] | 2 to 900 nM | 160 to 3000 nM
22 | CC[C@H](C)Oc1cc(C(=O)N[C@@H](Cc2ccccc2)[C@@H](O)C[C@@H](C)C(=O)NC2CC3CCC2C3)cc(N2CCCC2=O)c1 (stereo partly drawn) [Example E25, N-[(1S,2S,4R)-1-Benzyl-4-(bicyclo[2.2.1]hept-2-ylcarbamoyl)-2-hydroxypentyl]-3-((S)-sec-butoxy)-5-(2-oxopyrrolidin-1-yl)benzamide] | 2 to 900 nM | 160 to 3000 nM
23 | CC(C)Oc1cc(C(=O)N[C@@H](Cc2ccccc2)[C@@H](O)C[C@@H](C)C(=O)NC2CCC2)cc(N2CCCC2=O)c1 [Example E26, N-[(1S,2S,4R)-1-Benzyl-4-(cyclobutylcarbamoyl)-2-hydroxypentyl]-3-isopropoxy-5-(2-oxopyrrolidin-1-yl)benzamide] | 2 to 900 nM | 160 to 3000 nM
24 | CC(C)CNC(=O)[C@H](C)C[C@H](O)[C@H](Cc1ccccc1)NC(=O)c1cc(OC(C)C)cc(N2CCCC2=O)c1 [Example E27, N-[(1S,2S,4R)-1-Benzyl-4-(isobutylcarbamoyl)-2-hydroxypentyl]-3-isopropoxy-5-(2-oxopyrrolidin-1-yl)benzamide] | 2 to 900 nM | 160 to 3000 nM
